# Reference: patent publication US11220671B2, “Methods for the maturation of cardiomyocytes on amniotic fluid cell-derived ECM, cellular constructs, and uses for cardiotoxicity and proarrhythmic screening of drug compounds” (STEMBIOSYS, INC., priority 2019, dated 2022)
# B1: Periaxin (protein, UniProt Q9BXM0 1-1461, looked up)
# Periaxin: MEARSRSAEELRRAELVEIIVETEAQTGVSGINVAGGGKEGIFVRELREDSPAARSLSLQEGDQLLSARVFFENFKYEDALRLLQCAEPYKVSFCLKRTVPTGDLALRPGTVSGYEIKGPRAKVAKLNIQSLSPVKKKKMVPGALGVPADLAPVDVEFSFPKFSRLRRGLKAEAVKGPVPAAPARRRLQLPRLRVREVAEEAQAARLAAAAPPPRKAKVEAEVAAGARFTAPQVELVGPRLPGAEVGVPQVSAPKAAPSAEAAGGFALHLPTLGLGAPAPPAVEAPAVGIQVPQVELPALPSLPTLPTLPCLETREGAVSVVVPTLDVAAPTVGVDLALPGAEVEARGEAPEVALKMPRLSFPRFGARAKEVAEAKVAKVSPEARVKGPRLRMPTFGLSLLEPRPAAPEVVESKLKLPTIKMPSLGIGVSGPEVKVPKGPEVKLPKAPEVKLPKVPEAALPEVRLPEVELPKVSEMKLPKVPEMAVPEVRLPEVELPKVSEMKLPKVPEMAVPEVRLPEVQLLKVSEMKLPKVPEMAVPEVRLPEVQLPKVSEMKLPEVSEVAVPEVRLPEVQLPKVPEMKVPEMKLPKVPEMKLPEMKLPEVQLPKVPEMAVPDVHLPEVQLPKVPEMKLPEMKLPEVKLPKVPEMAVPDVHLPEVQLPKVPEMKLPKMPEMAVPEVRLPEVQLPKVSEMKLPKVPEMAVPDVHLPEVQLPKVCEMKVPDMKLPEIKLPKVPEMAVPDVHLPEVQLPKVSEIRLPEMQVPKVPDVHLPKAPEVKLPRAPEVQLKATKAEQAEGMEFGFKMPKMTMPKLGRAESPSRGKPGEAGAEVSGKLVTLPCLQPEVDGEAHVGVPSLTLPSVELDLPGALGLQGQVPAAKMGKGERVEGPEVAAGVREVGFRVPSVEIVTPQLPAVEIEEGRLEMIETKVKPSSKFSLPKFGLSGPKVAKAEAEGAGRATKLKVSKFAISLPKARVGAEAEAKGAGEAGLLPALDLSIPQLSLDAHLPSGKVEVAGADLKFKGPRFALPKFGVRGRDTEAAELVPGVAELEGKGWGWDGRVKMPKLKMPSFGLARGKEAEVQGDRASPGEKAESTAVQLKIPEVELVTLGAQEEGRAEGAVAVSGMQLSGLKVSTAGQVVTEGHDAGLRMPPLGISLPQVELTGFGEAGTPGQQAQSTVPSAEGTAGYRVQVPQVTLSLPGAQVAGGELLVGEGVFKMPTVTVPQLELDVGLSREAQAGEAATGEGGLRLKLPTLGARARVGGEGAEEQPPGAERTFCLSLPDVELSPSGGNHAEYQVAEGEGEAGHKLKVRLPRFGLVRAKEGAEEGEKAKSPKLRLPRVGFSQSEMVTGEGSPSPEEEEEEEEEGSGEGASGRRGRVRVRLPRVGLAAPSKASRGQEGDAAPKSPVREKSPKFRFPRVSLSPKARSGSGDQEEGGLRVRLPSVGFSETGAPGPARMEGAQAAAV
# B2: POU domain, class 3, transcription factor 3 (protein, UniProt P20264 1-500, looked up)
# POU domain, class 3, …: MATAASNPYLPGNSLLAAGSIVHSDAAGAGGGGGGGGGGGGGGAGGGGGGMQPGSAAVTSGAYRGDPSSVKMVQSDFMQGAMAASNGGHMLSHAHQWVTALPHAAAAAAAAAAAAVEASSPWSGSAVGMAGSPQQPPQPPPPPPQGPDVKGGAGRDDLHAGTALHHRGPPHLGPPPPPPHQGHPGGWGAAAAAAAAAAAAAAAAHLPSMAGGQQPPPQSLLYSQPGGFTVNGMLSAPPGPGGGGGGAGGGAQSLVHPGLVRGDTPELAEHHHHHHHHAHPHPPHPHHAQGPPHHGGGGGGAGPGLNSHDPHSDEDTPTSDDLEQFAKQFKQRRIKLGFTQADVGLALGTLYGNVFSQTTICRFEALQLSFKNMCKLKPLLNKWLEEADSSTGSPTSIDKIAAQGRKRKKRTSIEVSVKGALESHFLKCPKPSAQEITNLADSLQLEKEVVRVWFCNRRQKEKRMTPPGIQQQTPDDVYSQVGTVSADTPPPHHGLQTSVQ
# B3: Probable ATP-dependent RNA helicase DDX27 (protein, UniProt Q96GQ7 1-765, looked up)
# Probable ATP-dependent RNA …: MLADLGLIGTIGEDDEVPVEPESDSGDEEEEGPIVLGRRQKALGKNRSADFNPDFVFTEKEGTYDGSWALADVMSQLKKKRAATTLDEKIEKVRKKRKTEDKEAKSGKLEKEKEAKEGSEPKEQEDLQENDEEGSEDEASETDYSSADENILTKADTLKVKDRKKKKKKGQEAGGFFEDASQYDENLSFQDMNLSRPLLKAITAMGFKQPTPIQKACIPVGLLGKDICACAATGTGKTAAFALPVLERLIYKPRQAPVTRVLVLVPTRELGIQVHSVTRQLAQFCNITTCLAVGGLDVKSQEAALRAAPDILIATPGRLIDHLHNCPSFHLSSIEVLILDEADRMLDEYFEEQMKEIIRMCSHHRQTMLFSATMTDEVKDLASVSLKNPVRIFVNSNTDVAPFLRQEFIRIRPNREGDREAIVAALLTRTFTDHVMLFTQTKKQAHRMHILLGLMGLQVGELHGNLSQTQRLEALRRFKDEQIDILVATDVAARGLDIEGVKTVINFTMPNTIKHYVHRVGRTARAGRAGRSVSLVGEDERKMLKEIVKAAKAPVKARILPQDVILKFRDKIEKMEKDVYAVLQLEAEEKEMQQSEAQINTAKRLLEKGKEAVVQEPERSWFQTKEERKKEKIAKALQEFDLALRGKKKRKKFMKDAKKKGEMTAEERSQFEILKAQMFAERLAKRNRRAKRARAMPEEEPVRGPAKKQKQGKKSVFDEELTNTSKKALKQYRAGPSFEERKQLGLPHQRRGGNFKSKSRYKRRK
# B4: Polymerase delta-interacting protein 3 (protein, UniProt Q9BY77 2-421, looked up)
# Polymerase delta-interacting …: ADISLDELIRKRGAAAKGRLNARPGVGGVRSRVGIQQGLLSQSTRTATFQQRFDARQKIGLSDARLKLGVKDAREKLLQKDARFRIKGKVQDAREMLNSRKQQTTVPQKPRQVADAREKISLKRSSPAAFINPPIGTVTPALKLTKTIQVPQQKAMAPLHPHPAGMRINVVNNHQAKQNLYDLDEDDDGIASVPTKQMKFAASGGFLHHMAGLSSSKLSMSKALPLTKVVQNDAYTAPALPSSIRTKALTNMSRTLVNKEEPPKELPAAEPVLSPLEGTKMTVNNLHPRVTEEDIVELFCVCGALKRARLVHPGVAEVVFVKKDDAITAYKKYNNRCLDGQPMKCNLHMNGNVITSDQPILLRLSDSPSMKKESELPRRVNSASSSNPPAEVDPDTILKALFKSSGASVTTQPTEFKIKL
# B5: PR domain zinc finger protein 8 (protein, UniProt Q9NQV8 1-689, looked up)
# PR domain zinc finger protein …: MEDTGIQRGIWDGDAKAVQQCLTDIFTSVYTTCDIPENAIFGPCVLSHTSLYDSIAFIALKSTDKRTVPYIFRVDTSAANGSSEGLMWLRLVQSARDKEEQNLEAYIKNGQLFYRSLRRIAKDEELLVWYGKELTELLLLCPSRSHNKMNGSSPYTCLECSQRFQFEFPYVAHLRFRCPKRLHSADISPQDEQGGGVGTKDHGGGGGGGKDQQQQQQEAPLGPGPKFCKAGPLHHYPSPSPESSNPSAAAGGSSAKPSTDFHNLARELENSRGGSSCSPAQSLSSGSGSGGGGGHQEAELSPDGIATGGGKGKRKFPEEAAEGGGGAGLVGGRGRFVERPLPASKEDLVCTPQQYRASGSYFGLEENGRLFAPPSPETGEAKRSAFVEVKKAARAASLQEEGTADGAGVASEDQDAGGGGGSSTPAAASPVGAEKLLAPRPGGPLPSRLEGGSPARGSAFTSVPQLGSAGSTSGGGGTGAGAAGGAGGGQGAASDERKSAFSQPARSFSQLSPLVLGQKLGALEPCHPADGVGPTRLYPAAADPLAVKLQGAADLNGGCGSLPSGGGGLPKQSPFLYATAFWPKSSAAAAAAAAAAAAGPLQLQLPSALTLLPPSFTSLCLPAQNWCAKCNASFRMTSDLVYHMRSHHKKEYAMEPLVKRRREEKLKCPICNESFRERHHLSRHMTSHN
# B6: Probable global transcription activator SNF2L1 (protein, UniProt P28370 1-1042, looked up)
# SWI/SNF-related …: MEQDTAAVAATVAAADATATIVVIEDEQPGPSTSQEEGAAAAATEATAATEKGEKKKEKNVSSFQLKLAAKAPKSEKEMDPEYEEKMKADRAKRFEFLLKQTELFAHFIQPSAQKSPTSPLNMKLGRPRIKKDEKQSLISAGDYRHRRTEQEEDEELLSESRKTSNVCIRFEVSPSYVKGGPLRDYQIRGLNWLISLYENGVNGILADEMGLGKTLQTIALLGYLKHYRNIPGPHMVLVPKSTLHNWMNEFKRWVPSLRVICFVGDKDARAAFIRDEMMPGEWDVCVTSYEMVIKEKSVFKKFHWRYLVIDEAHRIKNEKSKLSEIVREFKSTNRLLLTGTPLQNNLHELWALLNFLLPDVFNSADDFDSWFDTKNCLGDQKLVERLHAVLKPFLLRRIKTDVEKSLPPKKEIKIYLGLSKMQREWYTKILMKDIDVLNSSGKMDKMRLLNILMQLRKCCNHPYLFDGAEPGPPYTTDEHIVSNSGKMVVLDKLLAKLKEQGSRVLIFSQMTRLLDILEDYCMWRGYEYCRLDGQTPHEEREEAIEAFNAPNSSKFIFMLSTRAGGLGINLASADVVILYDSDWNPQVDLQAMDRAHRIGQKKPVRVFRLITDNTVEERIVERAEIKLRLDSIVIQQGRLIDQQSNKLAKEEMLQMIRHGATHVFASKESELTDEDITTILERGEKKTAEMNERLQKMGESSLRNFRMDIEQSLYKFEGEDYREKQKLGMVEWIEPPKRERKANYAVDAYFREALRVSEPKIPKAPRPPKQPNVQDFQFFPPRLFELLEKEILYYRKTIGYKVPRNPDIPNPALAQREEQKKIDGAEPLTPEETEEKEKLLTQGFTNWTKRDFNQFIKANEKYGRDDIDNIAREVEGKSPEEVMEYSAVFWERCNELQDIEKIMAQIERGEARIQRRISIKKALDAKIARYKAPFHQLRIQYGTSKGKNYTEEEDRFLICMLHKMGFDRENVYEELRQCVRNAPQFRFDWFIKSRTAMEFQRRCNTLISLIEKENMEIEERERAEKKKRATKTPMVKFSAFS
# Test: Composition of amniotic fluid cell-derived ECM by mass spectrometry (total spectra count)
# Settings: amniotic fluid cell-derived ECM Matrix A, mass spectrometry; label = protein component
row,Molecule,Total Spectra Count Matrix A
1,B1,0
2,B2,0
3,B3,0
4,B4,0
5,B5,0
6,B6,0

# Same assay, conditions: amniotic fluid cell-derived ECM Matrix B, mass spectrometry; label = protein component
row,Molecule,Total Spectra Count Matrix B
1,B1,0
2,B2,20
3,B3,4
4,B4,6
5,B5,2
6,B6,6

# Same assay, conditions: amniotic fluid cell-derived ECM Matrix C, mass spectrometry; label = protein component
row,Molecule,Total Spectra Count Matrix C
1,B1,0
2,B2,0
3,B3,0
4,B4,0
5,B5,0
6,B6,0

# Same assay, conditions: amniotic fluid cell-derived ECM Matrix D, mass spectrometry; label = protein component
row,Molecule,Total Spectra Count Matrix D
1,B1,2
2,B2,0
3,B3,0
4,B4,0
5,B5,0
6,B6,0
